Measurements published in article PMC4627417.

Molecular target: 3XMyc-RPRD1B wild type (full length) (human) (UniProt Q9NQG5)
Assay: affinity purification with mass spectrometry; SILAC: tetracycline-induced 3XMyc-RPRD1B WT (heavy) and MT (light) in 293 Flp-In cells, anti-Myc immunoprecipitates from total lysate combined and analysed by MS

Binder | binding
CPSF1 (protein, UniProt Q10570 1-1443) MYAVYKQAHPPTGLEFSMYCNFFNNSERNLVVAGTSQLYVYRLNRDAEALTKNDRSTEGKAHREKLELAASFSFFGNVMSMASVQLAGAKRDALLLSFKDAKLSVVEYDPGTHDLKTLSLHYFEEPELRDGFVQNVHTPRVRVDPDGRCAAMLVYGTRLVVLPFRRESLAEEHEGLVGEGQRSSFLPSYIIDVRALDEKLLNIIDLQFLHGYYEPTLLILFEPNQTWPGRVAVRQDTCSIVAISLNITQKVHPVIWSLTSLPFDCTQALAVPKPIGGVVVFAVNSLLYLNQSVPPYGVALNSLTTGTTAFPLRTQEGVRITLDCAQATFISYDKMVISLKGGEIYVLTLITDGMRSVRAFHFDKAAASVLTTSMVTMEPGYLFLGSRLGNSLLLKYTEKLQEPPASAVREAADKEEPPSKKKRVDATAGWSAAGKSVPQDEVDEIEVYGSEAQSGTQLATYSFEVCDSILNIGPCANAAVGEPAFLSEEFQNSPEPDLEIVVCSGHGKNGALSVLQKSIRPQVVTTFELPGCYDMWTVIAPVRKEEEDNPKGEGTEQEPSTTPEADDDGRRHGFLILSREDSTMILQTGQEIMELDTSGFATQGPTVFAGNIGDNRYIVQVSPLGIRLLEGVNQLHFIPVDLGAPIVQCAVADPYVVIMSAEGHVTMFLLKSDSYGGRHHRLALHKPPLHHQSKVITLCLYRDLSGMFTTESRLGGARDELGGRSGPEAEGLGSETSPTVDDEEEMLYGDSGSLFSPSKEEARRSSQPPADRDPAPFRAEPTHWCLLVRENGTMEIYQLPDWRLVFLVKNFPVGQRVLVDSSFGQPTTQGEARREEATRQGELPLVKEVLLVALGSRQSRPYLLVHVDQELLIYEAFPHDSQLGQGNLKVRFKKVPHNINFREKKPKPSKKKAEGGGAEEGAGARGRVARFRYFEDIYGYSGVFICGPSPHWLLVTGRGALRLHPMAIDGPVDSFAPFHNVNCPRGFLYFNRQGELRISVLPAYLSYDAPWPVRKIPLRCTAHYVAYHVESKVYAVATSTNTPCARIPRMTGEEKEFETIERDERYIHPQQEAFSIQLISPVSWEAIPNARIELQEWEHVTCMKTVSLRSEETVSGLKGYVAAGTCLMQGEEVTCRGRILIMDVIEVVPEPGQPLTKNKFKVLYEKEQKGPVTALCHCNGHLVSAIGQKIFLWSLRASELTGMAFIDTQLYIHQMISVKNFILAADVMKSISLLRYQEESKTLSLVSRDAKPLEVYSVDFMVDNAQLGFLVSDRDRNLMVYMYLPEAKESFGGMRLLRRADFHVGAHVNTFWRTPCRGATEGLSKKSVVWENKHITWFATLDGGIGLLLPMQEKTYRRLLMLQNALTTMLPHHAGLNPRAFRMLHVDRRTLQNAVRNVLDGELLNRYLYLSTMERSELAKKIGTTPDIILDDLLETDRVTAHF | binds
CPSF2 (protein, UniProt Q9P2I0 1-782) MTSIIKLTTLSGVQEESALCYLLQVDEFRFLLDCGWDEHFSMDIIDSLRKHVHQIDAVLLSHPDPLHLGALPYAVGKLGLNCAIYATIPVYKMGQMFMYDLYQSRHNTEDFTLFTLDDVDAAFDKIQQLKFSQIVNLKGKGHGLSITPLPAGHMIGGTIWKIVKDGEEEIVYAVDFNHKREIHLNGCSLEMLSRPSLLITDSFNATYVQPRRKQRDEQLLTNVLETLRGDGNVLIAVDTAGRVLELAQLLDQIWRTKDAGLGVYSLALLNNVSYNVVEFSKSQVEWMSDKLMRCFEDKRNNPFQFRHLSLCHGLSDLARVPSPKVVLASQPDLECGFSRDLFIQWCQDPKNSIILTYRTTPGTLARFLIDNPSEKITEIELRKRVKLEGKELEEYLEKEKLKKEAAKKLEQSKEADIDSSDESDIEEDIDQPSAHKTKHDLMMKGEGSRKGSFFKQAKKSYPMFPAPEERIKWDEYGEIIKPEDFLVPELQATEEEKSKLESGLTNGDEPMDQDLSDVPTKCISTTESIEIKARVTYIDYEGRSDGDSIKKIINQMKPRQLIIVHGPPEASQDLAECCRAFGGKDIKVYMPKLHETVDATSETHIYQVRLKDSLVSSLQFCKAKDAELAWIDGVLDMRVSKVDTGVILEEGELKDDGEDSEMQVEAPSDSSVIAQQKAMKSLFGDDEKETGEESEIIPTLEPLPPHEVPGHQSVFMNEPRLSDFKQVLLREGIQAEFVGGVLVCNNQVAVRRTETGRIGLEGCLCQDFYRIRDLLYEQYAIV | binds
RBM17 (protein, UniProt Q96I25 1-401) MSLYDDLGVETSDSKTEGWSKNFKLLQSQLQVKKAALTQAKSQRTKQSTVLAPVIDLKRGGSSDDRQIVDTPPHVAAGLKDPVPSGFSAGEVLIPLADEYDPMFPNDYEKVVKRQREERQRQRELERQKEIEEREKRRKDRHEASGFARRPDPDSDEDEDYERERRKRSMGGAAIAPPTSLVEKDKELPRDFPYEEDSRPRSQSSKAAIPPPVYEEQDRPRSPTGPSNSFLANMGGTVAHKIMQKYGFREGQGLGKHEQGLSTALSVEKTSKRGGKIIVGDATEKDASKKSDSNPLTEILKCPTKVVLLRNMVGAGEVDEDLEVETKEECEKYGKVGKCVIFEIPGAPDDEAVRIFLEFERVESAIKAVVDLNGRYFGGRVVKACFYNLDKFRVLDLAEQV | binds
CHERP (protein, UniProt Q8IWX8 1-916) MEMPLPPDDQELRNVIDKLAQFVARNGPEFEKMTMEKQKDNPKFSFLFGGEFYSYYKCKLALEQQQLICKQQTPELEPAATMPPLPQPPLAPAAPIPPAQGAPSMDELIQQSQWNLQQQEQHLLALRQEQVTAAVAHAVEQQMQKLLEETQLDMNEFDNLLQPIIDTCTKDAISAGKNWMFSNAKSPPHCELMAGHLRNRITADGAHFELRLHLIYLINDVLHHCQRKQARELLAALQKVVVPIYCTSFLAVEEDKQQKIARLLQLWEKNGYFDDSIIQQLQSPALGLGQYQATLINEYSSVVQPVQLAFQQQIQTLKTQHEEFVTSLAQQQQQQQQQQQQLQMPQMEAEVKATPPPPAPPPAPAPAPAIPPTTQPDDSKPPIQMPGSSEYEAPGGVQDPAAAGPRGPGPHDQIPPNKPPWFDQPHPVAPWGQQQPPEQPPYPHHQGGPPHCPPWNNSHEGMWGEQRGDPGWNGQRDAPWNNQPDAAWNSQFEGPWNSQHEQPPWGGGQREPPFRMQRPPHFRGPFPPHQQHPQFNQPPHPHNFNRFPPRFMQDDFPPRHPFERPPYPHRFDYPQGDFPAEMGPPHHHPGHRMPHPGINEHPPWAGPQHPDFGPPPHGFNGQPPHMRRQGPPHINHDDPSLVPNVPYFDLPAGLMAPLVKLEDHEYKPLDPKDIRLPPPMPPSERLLAAVEAFYSPPSHDRPRNSEGWEQNGLYEFFRAKMRARRRKGQEKRNSGPSRSRSRSKSRGRSSSRSNSRSSKSSGSYSRSRSRSCSRSYSRSRSRSRSRSRSSRSRSRSQSRSRSKSYSPGRRRRSRSRSPTPPSSAGLGSNSAPPIPDSRLGEENKGHQMLVKMGWSGSGGLGAKEQGIQDPIKGGDVRDKWDQYKGVGVALDDPYENYRRNKSYSFIARMKARDECK | binds

These are yes or no findings as the source states them, for the method shown. In cells and extracts the contact can be indirect. These calls come from enrichment with a bait or labelling near it, and not all partners need be listed. Tags and fused reporters may be left off the sequences shown.
